Data from publication PMC10090947.
No constants are given. Whether binding was seen depends on the method and setting. Binding seen in cells or lysates may run through a third protein. Some binding calls cover weakened binding; strength is not graded here.

Amino acid sequences for entries named in this document (tags omitted).
UniProt Q15678: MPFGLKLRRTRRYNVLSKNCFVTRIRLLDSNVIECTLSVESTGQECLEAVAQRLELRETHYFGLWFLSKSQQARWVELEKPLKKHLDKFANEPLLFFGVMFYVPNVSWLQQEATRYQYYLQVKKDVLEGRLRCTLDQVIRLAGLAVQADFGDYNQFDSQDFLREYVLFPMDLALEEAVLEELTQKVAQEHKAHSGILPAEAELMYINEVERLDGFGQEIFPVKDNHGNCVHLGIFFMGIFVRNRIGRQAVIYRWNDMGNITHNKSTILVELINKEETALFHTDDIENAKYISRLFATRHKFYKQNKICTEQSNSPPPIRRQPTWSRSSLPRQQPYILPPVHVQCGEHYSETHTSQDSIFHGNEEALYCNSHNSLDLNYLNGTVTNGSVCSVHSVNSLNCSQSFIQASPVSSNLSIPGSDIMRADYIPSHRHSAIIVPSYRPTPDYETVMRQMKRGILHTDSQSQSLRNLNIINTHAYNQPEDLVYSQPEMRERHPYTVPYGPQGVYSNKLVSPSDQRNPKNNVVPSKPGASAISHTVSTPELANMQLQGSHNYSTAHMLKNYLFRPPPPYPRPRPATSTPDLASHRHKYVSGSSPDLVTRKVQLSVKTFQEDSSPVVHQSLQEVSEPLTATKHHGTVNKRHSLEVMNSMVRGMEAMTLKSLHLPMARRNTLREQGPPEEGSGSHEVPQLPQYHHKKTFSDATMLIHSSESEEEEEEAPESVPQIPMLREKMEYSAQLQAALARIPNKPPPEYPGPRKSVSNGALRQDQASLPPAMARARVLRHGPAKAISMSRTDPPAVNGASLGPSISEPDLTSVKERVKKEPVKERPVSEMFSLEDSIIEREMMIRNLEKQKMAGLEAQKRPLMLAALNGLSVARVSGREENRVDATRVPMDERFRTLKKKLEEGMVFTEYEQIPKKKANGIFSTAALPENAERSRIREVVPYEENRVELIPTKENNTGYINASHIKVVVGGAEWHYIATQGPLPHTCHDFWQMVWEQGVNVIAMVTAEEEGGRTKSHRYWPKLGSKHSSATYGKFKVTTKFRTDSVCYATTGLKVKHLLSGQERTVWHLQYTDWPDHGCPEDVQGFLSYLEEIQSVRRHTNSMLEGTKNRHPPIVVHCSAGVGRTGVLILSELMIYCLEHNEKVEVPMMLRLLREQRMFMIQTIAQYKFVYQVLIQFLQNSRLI

Target: T1, Large tumor suppressor 1 (LATS1), endogenous (human (endogenous in HEK293 and HEK293A)) (UniProt O95835)
T1 sequence: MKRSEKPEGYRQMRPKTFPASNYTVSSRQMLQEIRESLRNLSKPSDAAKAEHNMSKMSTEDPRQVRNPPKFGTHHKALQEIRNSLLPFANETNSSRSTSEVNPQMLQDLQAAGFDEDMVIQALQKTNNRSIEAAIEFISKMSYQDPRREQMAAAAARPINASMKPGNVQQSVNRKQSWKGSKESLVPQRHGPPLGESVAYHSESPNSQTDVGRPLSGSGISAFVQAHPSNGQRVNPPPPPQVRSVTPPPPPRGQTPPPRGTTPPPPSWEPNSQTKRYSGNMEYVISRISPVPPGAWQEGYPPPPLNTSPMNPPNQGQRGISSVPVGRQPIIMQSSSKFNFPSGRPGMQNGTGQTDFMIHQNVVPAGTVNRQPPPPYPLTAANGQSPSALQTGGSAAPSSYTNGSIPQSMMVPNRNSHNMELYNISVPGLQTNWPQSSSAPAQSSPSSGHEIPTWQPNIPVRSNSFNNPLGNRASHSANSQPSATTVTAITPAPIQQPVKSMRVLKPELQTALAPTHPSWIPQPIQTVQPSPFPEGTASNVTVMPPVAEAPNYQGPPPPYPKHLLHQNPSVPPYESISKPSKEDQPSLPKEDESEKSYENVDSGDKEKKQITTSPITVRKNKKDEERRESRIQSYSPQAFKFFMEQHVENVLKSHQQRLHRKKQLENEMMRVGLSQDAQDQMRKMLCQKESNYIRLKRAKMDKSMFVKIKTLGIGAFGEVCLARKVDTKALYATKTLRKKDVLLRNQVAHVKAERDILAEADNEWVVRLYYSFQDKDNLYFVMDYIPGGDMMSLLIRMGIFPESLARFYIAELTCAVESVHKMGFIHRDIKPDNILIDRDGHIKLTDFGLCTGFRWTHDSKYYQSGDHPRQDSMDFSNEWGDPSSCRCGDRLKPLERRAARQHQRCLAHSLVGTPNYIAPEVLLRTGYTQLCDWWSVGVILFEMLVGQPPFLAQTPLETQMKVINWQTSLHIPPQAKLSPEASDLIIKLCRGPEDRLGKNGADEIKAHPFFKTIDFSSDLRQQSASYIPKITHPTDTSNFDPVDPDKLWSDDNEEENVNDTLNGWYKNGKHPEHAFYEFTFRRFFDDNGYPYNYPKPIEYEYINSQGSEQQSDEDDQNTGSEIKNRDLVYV
Test: cross-linking; AP-XL-MS: Strep-HA YAP1 and co-purified proteins on beads cross-linked with 1 mM DSS-d0/d12 at 37°C for 30 min; cross-linked peptides identified by MS with xQuest/xProphet (lysines < 30 Å apart)

nonreceptor tyrosine phosphatase 14 (PTPN14), endogenous (from UniProt Q15678 1-1187) (enzyme)
binding: binds
